Assay results from article PMC6171917.
Results are given in words; binding and its absence hold for the method and conditions named. Some entries that bind do so weakly or less than the wild type. Where a sequence is shown, tags or fusion partners need not be part of it.

By UniProt entry, the sequences of proteins in these tests, tags left out. Where a name states a change or a piece, a line headed by the entry shows the natural chain unless it says otherwise.
UniProt P13647: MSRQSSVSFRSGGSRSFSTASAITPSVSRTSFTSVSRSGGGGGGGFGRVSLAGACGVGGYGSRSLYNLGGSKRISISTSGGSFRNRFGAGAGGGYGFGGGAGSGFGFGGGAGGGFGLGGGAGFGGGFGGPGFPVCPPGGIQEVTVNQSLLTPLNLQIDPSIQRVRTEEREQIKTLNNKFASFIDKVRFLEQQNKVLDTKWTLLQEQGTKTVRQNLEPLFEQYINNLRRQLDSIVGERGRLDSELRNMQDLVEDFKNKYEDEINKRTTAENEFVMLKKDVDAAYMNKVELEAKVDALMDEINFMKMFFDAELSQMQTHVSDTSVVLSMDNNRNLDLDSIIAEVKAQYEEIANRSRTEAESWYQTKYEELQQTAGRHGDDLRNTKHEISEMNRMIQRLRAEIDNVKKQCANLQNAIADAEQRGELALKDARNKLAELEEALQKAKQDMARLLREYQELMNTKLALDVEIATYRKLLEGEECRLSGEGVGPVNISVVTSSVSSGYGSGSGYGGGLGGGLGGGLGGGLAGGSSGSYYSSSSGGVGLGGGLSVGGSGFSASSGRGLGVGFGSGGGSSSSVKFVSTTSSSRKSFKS

The substances below were run against T1, GAL4-DNA-binding domain (BD) fused to the C-terminus of desmoplakin (UniProt P15924) (assay: two-hybrid; yeast three-hybrid: GAL4-BD-DSP C-terminus with co-expressed K5 and K14 constructs; growth on medium without histidine or without adenine).
T1 sequence: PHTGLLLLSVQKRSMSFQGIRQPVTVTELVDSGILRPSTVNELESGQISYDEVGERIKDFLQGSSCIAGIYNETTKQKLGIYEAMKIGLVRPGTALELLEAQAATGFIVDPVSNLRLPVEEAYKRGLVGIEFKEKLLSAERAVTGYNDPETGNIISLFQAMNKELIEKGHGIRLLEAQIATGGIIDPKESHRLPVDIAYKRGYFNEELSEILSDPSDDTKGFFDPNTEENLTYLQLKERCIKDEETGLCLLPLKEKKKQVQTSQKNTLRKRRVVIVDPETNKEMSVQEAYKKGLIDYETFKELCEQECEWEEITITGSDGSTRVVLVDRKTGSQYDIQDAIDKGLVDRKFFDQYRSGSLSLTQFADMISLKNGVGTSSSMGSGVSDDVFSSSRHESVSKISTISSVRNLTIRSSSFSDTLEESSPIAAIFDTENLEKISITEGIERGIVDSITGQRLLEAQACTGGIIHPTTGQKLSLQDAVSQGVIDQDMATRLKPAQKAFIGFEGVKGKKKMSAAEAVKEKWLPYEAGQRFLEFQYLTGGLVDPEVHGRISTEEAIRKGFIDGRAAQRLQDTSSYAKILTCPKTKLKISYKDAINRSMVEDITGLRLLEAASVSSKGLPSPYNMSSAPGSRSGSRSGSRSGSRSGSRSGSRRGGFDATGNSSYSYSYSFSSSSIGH

binding, binds:
K5 p.(Asn176Ser) with wild-type K14 (Y3H) (from UniProt P13647 1-590; P02533 1-472) (complex)
K5 p.(Asn177Ser) with wild-type K14 (Y3H) (from UniProt P13647 1-590; P02533 1-472) (complex)
K5 p.(Glu168Asp) with wild-type K14 (Y3H) (from UniProt P13647 1-590; P02533 1-472) (complex)
K5 p.(Glu168Gln) with wild-type K14 (Y3H) (from UniProt P13647 1-590; P02533 1-472) (complex)
K5 p.(Leu311Arg) with wild-type K14 (Y3H) (from UniProt P13647 1-590; P02533 1-472) (complex)
K5/K14 co-expressed in yeast (wild type, Y3H) (from UniProt P13647 1-590; P02533 1-472) (complex)
K14 p.(Arg125His) with wild-type K5 (Y3H) (from UniProt P13647 1-590; P02533 1-472) (complex)
K14 p.(Ile176Met) with wild-type K5 (Y3H) (from UniProt P13647 1-590; P02533 1-472) (complex)
K14 p.(Leu284Pro) with wild-type K5 (Y3H) (from UniProt P13647 1-590; P02533 1-472) (complex)
K14 p.(Val270Met) with wild-type K5 (Y3H) (from UniProt P13647 1-590; P02533 1-472) (complex)
